From the supplement of paper PMC10849652
This is one part of the list.

By UniProt entry, the sequences of proteins in these tests, tags left out. Where a name states a change or a piece, a line headed by the entry shows the natural chain unless it says otherwise.
UniProt Q16384, whole entry, looked up: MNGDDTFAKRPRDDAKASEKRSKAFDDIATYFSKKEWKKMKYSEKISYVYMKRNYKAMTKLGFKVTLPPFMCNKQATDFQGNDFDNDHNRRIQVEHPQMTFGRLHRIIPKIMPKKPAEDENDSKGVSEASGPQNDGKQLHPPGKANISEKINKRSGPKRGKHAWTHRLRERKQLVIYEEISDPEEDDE
UniProt Q9NP77: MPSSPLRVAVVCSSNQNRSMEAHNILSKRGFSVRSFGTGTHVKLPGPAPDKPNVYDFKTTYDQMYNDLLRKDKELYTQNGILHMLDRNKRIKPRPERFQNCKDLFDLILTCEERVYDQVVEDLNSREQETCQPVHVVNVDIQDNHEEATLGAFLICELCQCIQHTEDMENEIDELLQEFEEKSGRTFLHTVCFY
UniProt P36956: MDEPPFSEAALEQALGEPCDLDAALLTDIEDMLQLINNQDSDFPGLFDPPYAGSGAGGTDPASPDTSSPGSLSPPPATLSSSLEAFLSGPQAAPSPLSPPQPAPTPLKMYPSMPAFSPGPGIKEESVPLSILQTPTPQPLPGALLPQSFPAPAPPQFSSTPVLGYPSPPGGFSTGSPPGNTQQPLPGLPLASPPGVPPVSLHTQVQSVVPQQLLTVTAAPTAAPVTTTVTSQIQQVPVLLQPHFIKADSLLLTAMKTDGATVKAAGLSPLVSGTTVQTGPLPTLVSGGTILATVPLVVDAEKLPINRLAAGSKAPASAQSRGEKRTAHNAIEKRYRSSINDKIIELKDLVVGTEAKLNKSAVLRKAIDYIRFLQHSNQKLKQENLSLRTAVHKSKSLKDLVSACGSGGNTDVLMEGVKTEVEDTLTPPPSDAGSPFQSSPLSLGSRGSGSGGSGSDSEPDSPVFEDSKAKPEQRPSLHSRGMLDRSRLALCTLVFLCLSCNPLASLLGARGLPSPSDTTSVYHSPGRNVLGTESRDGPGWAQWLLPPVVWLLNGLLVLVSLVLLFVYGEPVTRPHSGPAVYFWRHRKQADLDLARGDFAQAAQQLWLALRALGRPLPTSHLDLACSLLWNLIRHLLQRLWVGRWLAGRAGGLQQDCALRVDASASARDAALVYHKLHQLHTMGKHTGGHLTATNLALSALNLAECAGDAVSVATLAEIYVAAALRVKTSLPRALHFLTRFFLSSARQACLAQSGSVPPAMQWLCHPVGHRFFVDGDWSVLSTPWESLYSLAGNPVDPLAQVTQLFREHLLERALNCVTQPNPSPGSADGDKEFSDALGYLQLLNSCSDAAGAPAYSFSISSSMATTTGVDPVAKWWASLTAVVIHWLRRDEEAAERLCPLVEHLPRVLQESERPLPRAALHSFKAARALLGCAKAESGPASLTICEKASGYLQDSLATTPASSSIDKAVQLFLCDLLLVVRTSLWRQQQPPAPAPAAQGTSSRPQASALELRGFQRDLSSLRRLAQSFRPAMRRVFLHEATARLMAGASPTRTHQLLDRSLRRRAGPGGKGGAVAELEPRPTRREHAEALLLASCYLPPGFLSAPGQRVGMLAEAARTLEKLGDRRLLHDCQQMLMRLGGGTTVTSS
UniProt P52630: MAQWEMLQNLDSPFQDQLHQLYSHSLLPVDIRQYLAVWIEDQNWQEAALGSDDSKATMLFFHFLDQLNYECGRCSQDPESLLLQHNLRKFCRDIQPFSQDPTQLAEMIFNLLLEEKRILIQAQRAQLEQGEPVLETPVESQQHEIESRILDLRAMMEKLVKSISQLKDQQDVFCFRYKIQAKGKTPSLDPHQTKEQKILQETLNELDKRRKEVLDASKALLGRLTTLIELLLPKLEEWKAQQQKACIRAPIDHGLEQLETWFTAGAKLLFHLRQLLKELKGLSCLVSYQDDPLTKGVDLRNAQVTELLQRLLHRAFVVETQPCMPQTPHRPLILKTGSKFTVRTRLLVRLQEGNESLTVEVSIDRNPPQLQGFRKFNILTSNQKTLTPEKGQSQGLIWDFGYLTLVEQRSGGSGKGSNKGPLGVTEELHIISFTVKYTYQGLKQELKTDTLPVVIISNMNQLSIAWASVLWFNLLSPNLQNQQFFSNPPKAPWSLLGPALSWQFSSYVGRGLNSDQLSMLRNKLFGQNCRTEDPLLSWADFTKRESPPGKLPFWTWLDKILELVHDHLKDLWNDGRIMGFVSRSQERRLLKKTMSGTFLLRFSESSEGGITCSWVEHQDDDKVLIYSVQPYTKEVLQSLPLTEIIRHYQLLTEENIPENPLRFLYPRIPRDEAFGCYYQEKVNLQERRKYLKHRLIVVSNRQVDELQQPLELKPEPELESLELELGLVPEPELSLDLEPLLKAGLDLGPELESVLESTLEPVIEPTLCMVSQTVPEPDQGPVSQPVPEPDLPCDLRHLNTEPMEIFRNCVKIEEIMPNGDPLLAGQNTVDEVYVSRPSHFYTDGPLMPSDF
UniProt Q9Y365: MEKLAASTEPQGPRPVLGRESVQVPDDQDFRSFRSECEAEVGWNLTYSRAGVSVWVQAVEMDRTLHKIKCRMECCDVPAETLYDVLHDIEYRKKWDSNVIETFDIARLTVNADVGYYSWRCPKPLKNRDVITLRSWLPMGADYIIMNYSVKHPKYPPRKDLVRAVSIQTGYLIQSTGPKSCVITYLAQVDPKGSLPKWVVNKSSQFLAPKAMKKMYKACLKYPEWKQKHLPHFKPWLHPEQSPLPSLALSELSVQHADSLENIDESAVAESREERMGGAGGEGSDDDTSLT
UniProt Q08AE8, whole entry, looked up: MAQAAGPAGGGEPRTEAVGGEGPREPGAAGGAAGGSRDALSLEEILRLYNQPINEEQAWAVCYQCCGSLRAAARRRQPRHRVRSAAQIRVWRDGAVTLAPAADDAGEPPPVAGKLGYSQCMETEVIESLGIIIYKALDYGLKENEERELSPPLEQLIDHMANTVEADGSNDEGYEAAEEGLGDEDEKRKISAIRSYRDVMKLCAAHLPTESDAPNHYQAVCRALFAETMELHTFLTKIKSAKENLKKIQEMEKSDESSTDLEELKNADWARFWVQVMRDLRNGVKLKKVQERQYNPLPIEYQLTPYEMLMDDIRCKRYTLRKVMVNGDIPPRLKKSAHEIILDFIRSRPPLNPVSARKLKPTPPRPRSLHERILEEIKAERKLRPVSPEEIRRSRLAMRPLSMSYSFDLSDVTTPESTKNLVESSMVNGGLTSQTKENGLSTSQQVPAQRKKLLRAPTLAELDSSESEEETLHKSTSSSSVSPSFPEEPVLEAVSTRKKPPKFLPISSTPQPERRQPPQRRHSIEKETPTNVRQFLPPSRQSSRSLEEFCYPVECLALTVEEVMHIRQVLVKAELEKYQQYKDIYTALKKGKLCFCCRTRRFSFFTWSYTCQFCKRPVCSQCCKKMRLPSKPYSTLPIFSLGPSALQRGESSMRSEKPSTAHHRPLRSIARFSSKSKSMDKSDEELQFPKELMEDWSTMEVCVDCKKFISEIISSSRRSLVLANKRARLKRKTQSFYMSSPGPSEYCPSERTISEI
UniProt P49675, whole entry, looked up: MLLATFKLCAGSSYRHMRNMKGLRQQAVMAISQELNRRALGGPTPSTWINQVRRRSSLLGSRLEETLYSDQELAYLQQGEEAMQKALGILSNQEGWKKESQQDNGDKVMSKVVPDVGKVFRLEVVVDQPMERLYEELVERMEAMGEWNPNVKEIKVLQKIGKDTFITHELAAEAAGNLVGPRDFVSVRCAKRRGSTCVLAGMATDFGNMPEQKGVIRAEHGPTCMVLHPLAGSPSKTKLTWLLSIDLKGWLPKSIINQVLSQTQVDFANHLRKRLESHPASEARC
UniProt Q7Z699: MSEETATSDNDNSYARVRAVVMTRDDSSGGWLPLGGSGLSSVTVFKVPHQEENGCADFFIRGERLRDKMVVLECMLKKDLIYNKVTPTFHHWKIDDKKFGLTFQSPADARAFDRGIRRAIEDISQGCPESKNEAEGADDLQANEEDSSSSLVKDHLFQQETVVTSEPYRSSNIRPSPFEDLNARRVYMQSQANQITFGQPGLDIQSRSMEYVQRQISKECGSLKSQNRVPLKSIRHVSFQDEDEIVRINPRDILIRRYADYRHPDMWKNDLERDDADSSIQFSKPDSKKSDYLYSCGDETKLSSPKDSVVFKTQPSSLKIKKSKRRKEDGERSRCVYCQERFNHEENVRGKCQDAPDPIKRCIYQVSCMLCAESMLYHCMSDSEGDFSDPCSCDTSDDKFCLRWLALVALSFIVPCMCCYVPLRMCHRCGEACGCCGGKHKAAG
UniProt Q9H8P0: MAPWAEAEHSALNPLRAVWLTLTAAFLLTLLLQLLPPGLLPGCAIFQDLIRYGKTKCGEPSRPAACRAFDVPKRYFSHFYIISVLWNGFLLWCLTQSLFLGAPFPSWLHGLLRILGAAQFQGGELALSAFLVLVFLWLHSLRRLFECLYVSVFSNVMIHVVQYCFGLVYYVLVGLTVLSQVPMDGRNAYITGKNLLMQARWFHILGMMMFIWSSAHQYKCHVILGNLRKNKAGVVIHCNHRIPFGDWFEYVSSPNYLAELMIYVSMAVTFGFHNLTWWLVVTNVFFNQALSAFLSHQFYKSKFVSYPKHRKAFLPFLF
UniProt P43308: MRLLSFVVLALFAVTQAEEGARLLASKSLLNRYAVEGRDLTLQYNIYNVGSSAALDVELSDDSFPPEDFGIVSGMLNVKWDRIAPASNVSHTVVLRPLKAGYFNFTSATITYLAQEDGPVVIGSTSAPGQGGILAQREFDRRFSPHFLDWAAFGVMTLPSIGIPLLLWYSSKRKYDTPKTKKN
UniProt Q68D10: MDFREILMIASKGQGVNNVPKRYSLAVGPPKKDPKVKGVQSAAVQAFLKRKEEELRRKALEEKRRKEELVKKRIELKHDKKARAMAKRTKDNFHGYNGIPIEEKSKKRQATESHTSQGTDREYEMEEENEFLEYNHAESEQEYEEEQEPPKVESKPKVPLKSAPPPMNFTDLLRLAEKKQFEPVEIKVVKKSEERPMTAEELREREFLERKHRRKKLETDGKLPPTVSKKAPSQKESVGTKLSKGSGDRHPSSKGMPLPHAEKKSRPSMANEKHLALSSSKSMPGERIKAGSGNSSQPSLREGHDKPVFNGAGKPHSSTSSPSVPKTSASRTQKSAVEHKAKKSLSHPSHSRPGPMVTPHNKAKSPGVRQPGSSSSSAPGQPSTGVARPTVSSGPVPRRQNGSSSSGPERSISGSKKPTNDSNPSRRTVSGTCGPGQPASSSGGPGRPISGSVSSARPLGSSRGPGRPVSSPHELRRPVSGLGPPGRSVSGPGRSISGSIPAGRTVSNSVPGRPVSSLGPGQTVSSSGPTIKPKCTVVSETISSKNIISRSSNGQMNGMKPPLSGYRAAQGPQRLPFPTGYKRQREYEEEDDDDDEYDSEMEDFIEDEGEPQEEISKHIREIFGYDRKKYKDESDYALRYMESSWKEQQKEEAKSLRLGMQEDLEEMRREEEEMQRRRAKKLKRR
UniProt O75177, whole entry, looked up: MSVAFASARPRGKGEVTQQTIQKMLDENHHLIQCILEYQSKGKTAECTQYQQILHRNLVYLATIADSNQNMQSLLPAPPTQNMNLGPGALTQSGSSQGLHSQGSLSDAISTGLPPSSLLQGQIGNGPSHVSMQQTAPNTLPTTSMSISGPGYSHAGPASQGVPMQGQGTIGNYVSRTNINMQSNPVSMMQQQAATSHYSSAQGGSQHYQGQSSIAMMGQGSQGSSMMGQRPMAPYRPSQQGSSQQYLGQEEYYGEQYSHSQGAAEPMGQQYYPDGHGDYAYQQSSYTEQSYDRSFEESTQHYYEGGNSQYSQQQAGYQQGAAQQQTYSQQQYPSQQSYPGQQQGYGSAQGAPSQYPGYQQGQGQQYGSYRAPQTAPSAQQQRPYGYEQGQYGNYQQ
UniProt Q8N0Z3: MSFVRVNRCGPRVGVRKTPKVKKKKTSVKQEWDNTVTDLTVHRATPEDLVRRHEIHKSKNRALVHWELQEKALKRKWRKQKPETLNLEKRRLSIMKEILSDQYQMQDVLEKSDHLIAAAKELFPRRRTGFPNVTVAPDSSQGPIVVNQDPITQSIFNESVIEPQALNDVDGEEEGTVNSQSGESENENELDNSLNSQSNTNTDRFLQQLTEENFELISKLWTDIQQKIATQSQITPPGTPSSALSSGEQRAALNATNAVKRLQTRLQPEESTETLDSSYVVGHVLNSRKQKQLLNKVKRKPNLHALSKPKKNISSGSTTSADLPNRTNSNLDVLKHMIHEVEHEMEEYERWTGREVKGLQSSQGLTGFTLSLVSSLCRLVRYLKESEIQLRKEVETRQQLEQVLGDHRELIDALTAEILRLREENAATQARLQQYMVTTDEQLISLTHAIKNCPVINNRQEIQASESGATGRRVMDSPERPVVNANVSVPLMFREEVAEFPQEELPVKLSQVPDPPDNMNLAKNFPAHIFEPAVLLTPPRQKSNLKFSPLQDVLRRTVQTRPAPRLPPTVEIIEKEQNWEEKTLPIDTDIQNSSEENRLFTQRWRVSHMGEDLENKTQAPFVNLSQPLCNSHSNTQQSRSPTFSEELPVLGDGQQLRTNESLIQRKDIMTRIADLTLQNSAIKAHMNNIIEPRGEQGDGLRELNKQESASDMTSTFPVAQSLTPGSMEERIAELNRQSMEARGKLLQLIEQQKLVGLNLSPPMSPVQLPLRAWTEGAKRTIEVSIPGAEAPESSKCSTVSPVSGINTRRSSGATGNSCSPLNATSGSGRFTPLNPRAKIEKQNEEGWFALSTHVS

What was measured:
Assay in all cases: log2 fold change, soluble protein after heating vs DMSO (PISA); higher = thermal stabilisation; K562 cells, 10 uM, 30 min; active = over 0.2 and 3.5 SD of the protein, either way, in both replicates (recomputed)
[1] = compound: CCn1cc(-c2ccnc3[nH]c(-c4cccc(CN(C)C)c4)cc23)c(-c2ccc(NC(=O)N(C)C)cc2)n1
How it was run: (§1)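 K562 cells at 2×10^6 cells/mL were treated with 10 μM compound for 30 min. Aliquots were heated for 3 min across 48°C-58°C, pooled, and extracted in PBS with 0.5% NP-40 at 4°C; soluble protein was the supernatant after 21,000xg for 90 min. Soluble protein was quantified by TMTpro 16plex LC-MS/MS with channel sums equalised, and reported as log2 fold change in thermal stability against DMSO controls, with values from duplicates.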

[2] = compound: CN1CCC(CNc2ccc3ncc(-c4cccc(OC(F)(F)F)c4)n3n2)CC1
How it was run: as §1

[3] = compound: CC[C@@H]1C(=O)N(C)c2cnc(Nc3ccc(C(=O)N[C@H]4CC[C@H](N5CCN(CC6CC6)CC5)CC4)cc3OC)nc2N1C(C)C [volasertib]
How it was run: as §1

[4] = compound: CC[C@H](C)[C@@H](C(=O)N[C@@H]([C@@H](C)O)C(=O)N[C@@H](CC(C)C)C(=O)[C@]1(CO1)C)NC(=O)[C@H]([C@@H](C)CC)N(C)C(=O)C [epoxomicin]
How it was run: as §1

[5] = compound: CCn1c(C(=O)N(C2CC2)C2CC2)cc2c3c(ncn3C)c(Nc3cc(C)n(C)n3)nc21
How it was run: as §1

[6] = compound: CN(C)CC(=O)Nc1ccc2[nH]c(=O)c3ccccc3c2c1
How it was run: as §1

[7] = compound: CN(CCOC1=CC=C(C=C1)C[C@H]2C(=O)NC(=O)S2)C3=CC=CC=N3 (racemic) [rosiglitazone]
How it was run: as §1

[8] = compound: CN1C2=C(C3=C1C(=O)N(N=C3)CC4=CC(=CC=C4)N)SC(=C2)S(=O)C
How it was run: as §1

[9] = compound: CC[C@@H]1C(=O)N(C)c2cnc(Nc3ccc(C(=O)NC4CCN(C)CC4)cc3OC)nc2N1C1CCCC1
How it was run: as §1

[10] = compound: CC[C@H](C)N1C=C(C2=C(C=C(C=C21)C3=CN=C(C=C3)N4CCNCC4)C(=O)NCC5=C(C=C(NC5=O)C)C)C
How it was run: as §1

Measured: log2 fold change

STIP1 (UniProt H0YGI8)
inactive: [1] -0.108 | [2] -0.062

SPINT1 (UniProt O43278)
inactive: [3] -0.107 | [4] -0.035 | [5] 0.003 | [1] -0.154 | [6] -0.179 | [2] 0.049

SPTAN1 isoform 3 (UniProt Q13813)
inactive: [6] 0.117

SSX1 (UniProt Q16384)
inactive: [3] -0.116 | [4] -0.031 | [7] 0.274

SSU72 (UniProt Q9NP77)
inactive: [3] -0.444 | [4] 0.116 | [5] -0.219 | [1] -0.077 | [6] 0.182 | [7] 0.028 | [8] 0.028 | [2] -0.449

SRBD1 (UniProt Q8N5C6)
inactive: [4] -0.108 | [1] 0.181 | [2] 0.056

SPRR2B (UniProt P35325)
inactive: [9] 0.009 | [10] -0.166 | [4] 0.862 | [5] -0.115 | [6] 0.079 | [7] 0.279

ST8SIA6 (UniProt P61647)
inactive: [1] 0.028 | [6] -0.073 | [7] 0.029 | [2] 0.185

SREBF1 isoform 4 (UniProt P36956)
inactive: [9] -0.511 | [4] -0.035 | [8] 0.198

SRCIN1 (UniProt Q9C0H9)
inactive: [5] -0.009 | [1] -0.003 | [6] -0.017 | [7] -0.332 | [2] -0.265

SSB (UniProt E7ERC4)
inactive: [1] -0.076 | [6] -0.154 | [8] -0.34 | [2] 0.266

SRGAP1 (UniProt Q7Z6B7)
inactive: [3] -0.219 | [10] 0.087 | [4] -0.026 | [1] -0.145 | [6] -0.143 | [7] -0.011 | [2] 0.229

STAT2 (UniProt P52630)
inactive: [9] 0.003 | [5] -0.1 | [1] 0.284 | [6] -0.134 | [7] 0.181 | [8] 0.27 | [2] -0.086

SPDL1 (UniProt Q96EA4)
inactive: [9] -0.092 | [3] -0.282 | [5] -0.321 | [8] 0.23

SSBP4 (UniProt U3KPY3)
inactive: [6] 0.049

STARD10 (UniProt Q9Y365)
inactive: [9] -0.034 | [4] 0.29 | [5] 0.065 | [6] 0.305 | [8] -0.03

STC2 (UniProt O76061)
inactive: [3] 0.217 | [10] 0.06 | [5] 0.04 | [1] -0.366 | [6] -0.374 | [7] -0.027 | [2] 0.204

SPHK2 isoform 5 (UniProt Q9NRA0)
inactive: [3] -0.054

SPIRE1 (UniProt Q08AE8)
inactive: [9] 0.125 | [10] -0.181 | [4] -0.238 | [1] -0.116 | [6] -0.056 | [2] -0.026

STAR (UniProt P49675)
inactive: [6] 0.144

SPATS2L isoform 3 (UniProt Q9NUQ6)
inactive: [4] -0.401 | [8] 0.335

SPRED1 (UniProt Q7Z699)
inactive: [4] -0.184 | [6] -0.106

2 successive entries from above, quoted:
STAR (UniProt P49675)
inactive: [6] 0.144

SPATS2L isoform 3 (UniProt Q9NUQ6)
inactive: [4] -0.401 | [8] 0.335

Going on with the list.

SRD5A3 (UniProt Q9H8P0)
inactive: [9] -0.277 | [10] -0.046 | [5] 0.019 | [1] 0.073 | [7] 0.08 | [2] -0.406

SSR2 (UniProt P43308)
inactive: [10] -0.272

SPP2 (UniProt Q13103)
inactive: [4] -0.219 | [5] 0 | [6] -0.034 | [7] -0.063 | [8] 0.148

ST3GAL1 (UniProt Q11201)
inactive: [3] -0.097 | [4] -0.093 | [8] -0.077

SPTY2D1 (UniProt Q68D10)
inactive: [4] 0.037

SQOR (UniProt Q9Y6N5)
inactive: [4] -0.027 | [5] -0.066 | [1] 0.055 | [6] 0.048 | [8] -0.01 | [2] 0.034

STAB1 (UniProt Q9NY15)
inactive: [3] -0.154 | [4] -0.2 | [5] -0.143 | [1] 0.209 | [6] 0.034 | [7] 0.432 | [8] -0.054 | [2] 0.082

SS18L1 (UniProt O75177)
inactive: [3] 0.093

SREBF2 (UniProt Q12772)
inactive: [9] -0.031 | [10] 0.016 | [4] -0.004 | [5] -0.042 | [6] -0.051 | [7] 0.031

ST3GAL4 isoform 4 (UniProt Q11206)
inactive: [10] -0.083 | [4] -0.052 | [5] -0.004 | [7] -0.046

SPATS2 (UniProt Q86XZ4)
inactive: [9] -0.035 | [5] -0.099 | [1] 0.162 | [6] 0.137 | [8] 0.34 | [2] 0.017

SSBP2 (UniProt P81877)
inactive: [9] 0.091 | [3] -0.294 | [4] 0.118 | [1] 0.135 | [7] 0.042 | [2] 0.165

SPICE1 (UniProt Q8N0Z3)
inactive: [10] -0.286 | [1] 0.038 | [7] -0.322 | [2] -0.578
